# Data published in PubChem BioAssay AID504834 (National Center for Advancing Translational Sciences (NCATS), 2011).
# Hit rate of the full screen: of about 320,000 compounds, about 22,000 (6.9%) were called active. The shares of active, inactive and inconclusive entries below differ from those in the screen. Calls come from the whole dose curve; as a rule, active = well fitted inhibition curve with a large enough effect; inconclusive = small, poorly fitted or top-dose-only effect, or another doubt; inactive = no such curve, though single readings can be large or run the other way. Potencies beside an inconclusive call are fits to weak or partial responses and may not hold up.
# Experiment: Primary qHTS for delayed death inhibitors of the malarial parasite plastid, 96 hour incubation
# Details: P. falciparum luciferase reporter growth; series mostly up to 28.7 µM; activity change, negative = inhibition: at the top concentration
# How it was run: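 Infected RBCs, 2% Hct / 0.05% parasitemia final; luciferase-reporter P. falciparum; cpd 96 h, 37 C, 5% CO2; luciferase detection reagent; luminescence.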
# % is set by controls: 0 for no effect and ±100 for the full control effect; potency is the fitted concentration of half-maximal effect.
Structure (SMILES),Potency,"activity change, negative = inhibition"
CCOC(=O)N1CCN(C(=O)c2c(O)c3cccc4c3n(c2=O)CC4)CC1,"inconclusive: 13.1 µM [inhibitor, single point]",
CCOC(=O)c1c(NC(C)=O)sc2c1CCN(Cc1ccccc1)C2,"inconclusive: 18.5 µM [inhibitor, single point]",
COc1ccccc1NC(=S)N1CCC(c2nc3cc(C)c(C)cc3[nH]2)CC1,active: 11.7 µM,
CCOC(=O)N1CCC(N2CCN(CCC(C)C)C(CCO)C2)CC1 (stereo not given),,inactive: 11.7%
Cc1ccc(NC(=O)Nc2nnc(Cc3ccc([N+](=O)[O-])cc3)s2)cc1C,"inconclusive: 7.38 µM [inhibitor, partial curve, poor fit]",
CC(C)C(NC(=O)c1ccc(C(C)(C)C)cc1)C(=O)NCC1(N(C)C)CCCCC1 (stereo not given),"inconclusive: 18.5 µM [inhibitor, single point]",
COc1ccc(C(=O)COC(=O)CCN=C2NS(=O)(=O)c3ccccc32)c(OC)c1,,inactive: 10.8%
CCOC(=O)c1c(N)sc2c1CCC(C)C2 (stereo not given),,inactive: 32.4%
CCOc1ccc(NS(=O)(=O)c2ccc(C(=O)N3CC(C)OC(C)C3)cc2)cc1 (stereo not given),,inactive: -11.6%
O=C(NCc1ccccc1CN1CCCCC1)c1ccccc1N1CCCC1=O,,inactive: -12.4%
Clc1ccc(C2=Nn3c(nnc3-c3cccs3)SC2)cc1,"inconclusive: 2.08 µM [inhibitor, partial curve, poor fit]",
COc1ccc(Br)cc1C(=O)Nc1ccc(N2CCCC2)cc1,"inconclusive: 18.5 µM [inhibitor, single point]",
O=C(CSc1nnc2ccccn12)NCc1cccs1,"inconclusive: 0.117 µM [inhibitor, full curve, poor fit]",
O=C(COC(=O)c1ccc([N+](=O)[O-])o1)Nc1cccc2ccccc12,,inactive: 16%
CCN(CC)S(=O)(=O)c1ccc(S(=O)(=O)N2CCCC2C(=O)O)cc1 (stereo not given),,inactive: -12.4%
Cc1cc(C)c(C)c(OCC(=O)N2CCN(c3ccccn3)CC2)c1,"inconclusive: 11.7 µM [inhibitor, single point]",
O=C(CC1CCCCC1)NCc1ccccc1Cl,"inconclusive: 18.5 µM [inhibitor, single point]",
CCN(c1nc(C)cc(OC)n1)S(=O)(=O)c1ccccc1,"inconclusive: 18.5 µM [inhibitor, single point]",
COC(=O)C1=C(C)N(Cc2ccc(OC)cc2)C(=O)/C1=C\c1ccco1,"inconclusive: 0.0026 µM [inhibitor, full curve, poor fit]",
COc1cc(/C=N/NC(=O)c2ccncc2)ccc1OC(=O)c1ccco1,"inconclusive: 5.22 µM [inhibitor, partial curve]",
O=C(O)C1=C(C(=O)Nc2cc(C(F)(F)F)ccc2Cl)CCCC1,"inconclusive: 11.7 µM [inhibitor, partial curve, poor fit]",
COc1ccc(C2CC(O)(c3ccccc3)Oc3cc(OC)c(OC)c(OC)c32)cc1 (stereo not given),active: 10.4 µM,
COc1ccccc1NC(=O)Nc1ccc(Cl)c(S(=O)(=O)Nc2ccccc2OC)c1,"inconclusive: 9.28 µM [inhibitor, partial curve]",
CC(=O)CN1C(=O)NC(c2ccccc2)(c2ccccc2)C1=O,,inactive: 18.2%

Structure (SMILES),Potency,"activity change, negative = inhibition"
CCOC(=O)N1CCN(c2ccc(C(F)(F)F)cn2)CC1,"inconclusive: 0.329 µM [inhibitor, partial curve, poor fit]",
CC1(c2ccc(OC(F)F)cc2)NC(=O)N(CC(=O)Nc2ccc(F)cc2)C1=O (stereo not given),,inactive: -21.9%
CC(C)CC(N)c1cn([C@@H](CCC(=O)O)C(=O)N2CCNCC2)nn1 (stereo not given in full),,inactive: 0%
O=C(NCC(=O)N1CCN(C(=O)c2ccco2)CC1)c1ccc(Cl)cc1,"inconclusive: 18.5 µM [inhibitor, single point]",
COc1ccc(-n2c(COc3ccc(C)cc3)nnc2SCC(=O)O)cc1,"inconclusive: 18.5 µM [inhibitor, single point]",
COc1ccc(C2NC(=S)NC(C)=C2C(=O)Nc2ccccn2)cc1 (stereo not given),,inactive: -20.6%
CC(C)(C)c1cc(C(=O)Nc2cccc3ccccc23)ccn1,"inconclusive: 18.5 µM [inhibitor, single point]",
Cc1cc(C)nc(NC(=O)c2ccc3c(c2)OCO3)c1,"inconclusive: 10.4 µM [inhibitor, single point]",
O=S(=O)(Nc1ccccc1N1CCOCC1)c1ccc(Cl)cc1,,inactive: 2.56%
CC1CCCCN1C(=O)CN1C(=O)NC2(CCCCC2C)C1=O (stereo not given),,inactive: -25.3%
CCCC(=O)Nc1ccccc1NC(=O)C1CCCCC1,"inconclusive: 10.4 µM [inhibitor, single point]",
COc1ccc(CN(C(=O)c2cc(=O)c3ccccc3o2)C2CCS(=O)(=O)C2)cc1 (stereo not given),"inconclusive: 13.1 µM [inhibitor, single point]",
CC(C)N1CCC(N2CCN(Cc3ccc(C#CC(C)(C)O)s3)CC2CCO)CC1 (stereo not given),"inconclusive: 14.7 µM [inhibitor, partial curve]",
Cn1cc(C(=O)c2cccc(Cl)c2)cc1/C=N\O,,inactive: 28.2%
Cc1cccc(C(=O)NCC(=O)NCC2COc3ccccc3O2)c1 (stereo not given),,inactive: 15.8%
Cc1ccc(S(=O)(=O)N(CC(=O)Nc2cccnc2)c2cccc(Br)c2)cc1,"inconclusive: 9.28 µM [inhibitor, partial curve]",
COc1ccc(NC(=O)CN(C)C(=O)/C=C/c2cn(-c3ccccc3)nc2-c2ccc(F)cc2)cc1,"inconclusive: 2.94 µM [inhibitor, single point]",
NS(=O)(=O)c1cccc(NS(=O)(=O)c2ccc(/C=C/C(=O)OCC(=O)c3ccccc3)cc2)c1,"inconclusive: 0.0037 µM [inhibitor, partial curve, poor fit]",
C/C=C/C(=O)OCC(=O)NC(=O)NC(C)C,"inconclusive: 0.165 µM [inhibitor, full curve, poor fit]",
COc1ccc(C(=O)NCC(=O)OCc2ccc([N+](=O)[O-])cc2)cc1,"inconclusive: 4.65 µM [inhibitor, partial curve]",
Cc1nc2ccccc2c2oc(C(=O)NCC3CCCO3)cc12 (stereo not given),"inconclusive: 18.5 µM [inhibitor, single point]",
Cc1cccc(-n2cc(C(=O)O)c(=O)cc2C)c1,,inactive: 10.3%
COc1cc(/C=C/C(=O)OCC(=O)Nc2ccc(S(N)(=O)=O)cc2)ccc1O,"inconclusive: 4.15 µM [inhibitor, single point]",
CCCn1c(=O)[nH]c(=O)c2c(C(=O)OCC)cc(-c3cccs3)nc21,"inconclusive: 9.28 µM [inhibitor, single point]",

Structure (SMILES),Potency,"activity change, negative = inhibition"
COc1cc(S(=O)(=O)Nc2cccnc2)ccc1Cl,"inconclusive: 8.28 µM [inhibitor, partial curve, poor fit]",
Oc1ccc(-c2[nH]ncc2-c2ccc(Br)cc2)c(O)c1,"inconclusive: 11.7 µM [inhibitor, partial curve, poor fit]",
S=C(c1ccc2c(c1)OCO2)N1CCCCCC1,active: 11.7 µM,
COc1ccc2c3c([nH]c2c1)C(C)N(CCC(=O)NN)CC3 (stereo not given),"inconclusive: 2.94 µM [inhibitor, full curve]",
Cc1c(/C=C/C(=O)c2ccc(Cl)s2)cnn1C,,inactive: -7.97%
CCC[N+](CC#CCO)(CC#Cc1ccccc1)CCC,"inconclusive: 4.15 µM [inhibitor, partial curve, poor fit]",
COCCN(C(=O)CCSc1ccc(F)cc1)c1c(N)n(Cc2ccccc2)c(=O)[nH]c1=O,active: 13.1 µM,
Cc1c(NC(=O)COC(=O)Cc2ccc(Br)cc2)c(=O)n(-c2ccccc2)n1C,"inconclusive: 13.1 µM [inhibitor, partial curve, poor fit]",
COCCNc1nc(N2CCCCC2)c2cnn(C)c2n1,,inactive: 3.74%
O=C(Nc1ccc(C(=O)O)cc1)/C(=C\c1ccc2c(c1)OCO2)NC(=O)c1ccco1,"inconclusive: 0.928 µM [inhibitor, partial curve, poor fit]",
Cc1nc(C(C)N(C)Cc2nc(Cc3ccccc3F)no2)c(C)s1 (stereo not given),,inactive: -29.3%
Cc1ccc(CNC(=O)C2CCC(=O)N2C(C)C)cc1 (stereo not given),"inconclusive: 11.7 µM [inhibitor, partial curve]",
COc1ccc(N(CC(=O)N2CCN(Cc3ccccc3)CC2)S(C)(=O)=O)cc1Cl,"inconclusive: 1.17 µM [inhibitor, partial curve, poor fit]",
c1ccc(NCc2nc3ccccc3n2CCOc2ccccc2)cc1,"inconclusive: 18.5 µM [inhibitor, single point]",
Cc1ccc(N2CCN(C(=O)c3ccccc3Br)CC2)c(C)c1,"inconclusive: 18.5 µM [inhibitor, single point]",
CC(C)(C)NC(=O)Cn1nnc(-c2ccccc2NC(=O)c2cnccn2)n1,"inconclusive: 2.33 µM [inhibitor, partial curve]",
CCn1c(SCc2nc3ccccc3[nH]2)nnc1-c1ccccc1OC,active: 3.7 µM,
Cc1cc(NC(=O)CCC(=O)N(c2ccccc2)C(C(=O)NC2CCCC2)c2ccc(F)cc2)no1 (stereo not given),"inconclusive: 18.5 µM [inhibitor, single point]",
CCOC(=O)C1CCCN(C(=O)C(C)Oc2ccc(Cl)cc2Cl)C1 (stereo not given),"inconclusive: 0.37 µM [inhibitor, partial curve, poor fit]",
Cc1ccc(CC2C(=O)N(c3nc(C)cc(C)n3)C(=O)C2C)cc1 (stereo not given),"inconclusive: 20.8 µM [inhibitor, single point]",
COc1ccc(-c2nc(N)n(C(=O)c3ccco3)n2)cc1,,inactive: -3.84%
CCc1ccc(S(=O)(=O)Nc2ccc(Br)cn2)cc1,,inactive: 14.6%

# A draw from above in order of heavy-atom count, ascending.
Structure (SMILES),Potency,"activity change, negative = inhibition"
CCOC(=O)c1c(N)sc2c1CCC(C)C2 (stereo not given),,inactive: 32.4%
Cn1cc(C(=O)c2cccc(Cl)c2)cc1/C=N\O,,inactive: 28.2%
CCc1ccc(S(=O)(=O)Nc2ccc(Br)cn2)cc1,,inactive: 14.6%
Cc1ccc(CNC(=O)C2CCC(=O)N2C(C)C)cc1 (stereo not given),"inconclusive: 11.7 µM [inhibitor, partial curve]",
Clc1ccc(C2=Nn3c(nnc3-c3cccs3)SC2)cc1,"inconclusive: 2.08 µM [inhibitor, partial curve, poor fit]",
Cc1nc2ccccc2c2oc(C(=O)NCC3CCCO3)cc12 (stereo not given),"inconclusive: 18.5 µM [inhibitor, single point]",
CCOC(=O)C1CCCN(C(=O)C(C)Oc2ccc(Cl)cc2Cl)C1 (stereo not given),"inconclusive: 0.37 µM [inhibitor, partial curve, poor fit]",
CCOC(=O)c1c(NC(C)=O)sc2c1CCN(Cc1ccccc1)C2,"inconclusive: 18.5 µM [inhibitor, single point]",
COC(=O)C1=C(C)N(Cc2ccc(OC)cc2)C(=O)/C1=C\c1ccco1,"inconclusive: 0.0026 µM [inhibitor, full curve, poor fit]",
COc1cc(/C=N/NC(=O)c2ccncc2)ccc1OC(=O)c1ccco1,"inconclusive: 5.22 µM [inhibitor, partial curve]",
Cc1ccc(S(=O)(=O)N(CC(=O)Nc2cccnc2)c2cccc(Br)c2)cc1,"inconclusive: 9.28 µM [inhibitor, partial curve]",
CC1(c2ccc(OC(F)F)cc2)NC(=O)N(CC(=O)Nc2ccc(F)cc2)C1=O (stereo not given),,inactive: -21.9%
CC(C)N1CCC(N2CCN(Cc3ccc(C#CC(C)(C)O)s3)CC2CCO)CC1 (stereo not given),"inconclusive: 14.7 µM [inhibitor, partial curve]",
COc1ccc(C2CC(O)(c3ccccc3)Oc3cc(OC)c(OC)c(OC)c32)cc1 (stereo not given),active: 10.4 µM,
COCCN(C(=O)CCSc1ccc(F)cc1)c1c(N)n(Cc2ccccc2)c(=O)[nH]c1=O,active: 13.1 µM,
NS(=O)(=O)c1cccc(NS(=O)(=O)c2ccc(/C=C/C(=O)OCC(=O)c3ccccc3)cc2)c1,"inconclusive: 0.0037 µM [inhibitor, partial curve, poor fit]",
COc1ccc(NC(=O)CN(C)C(=O)/C=C/c2cn(-c3ccccc3)nc2-c2ccc(F)cc2)cc1,"inconclusive: 2.94 µM [inhibitor, single point]",
